Drawing on paper doi:10.1101/2020.06.16.155333, this text covers binding for 1 molecule.

Amino acid sequences for entries named in this document (tags omitted).
UniProt P53350: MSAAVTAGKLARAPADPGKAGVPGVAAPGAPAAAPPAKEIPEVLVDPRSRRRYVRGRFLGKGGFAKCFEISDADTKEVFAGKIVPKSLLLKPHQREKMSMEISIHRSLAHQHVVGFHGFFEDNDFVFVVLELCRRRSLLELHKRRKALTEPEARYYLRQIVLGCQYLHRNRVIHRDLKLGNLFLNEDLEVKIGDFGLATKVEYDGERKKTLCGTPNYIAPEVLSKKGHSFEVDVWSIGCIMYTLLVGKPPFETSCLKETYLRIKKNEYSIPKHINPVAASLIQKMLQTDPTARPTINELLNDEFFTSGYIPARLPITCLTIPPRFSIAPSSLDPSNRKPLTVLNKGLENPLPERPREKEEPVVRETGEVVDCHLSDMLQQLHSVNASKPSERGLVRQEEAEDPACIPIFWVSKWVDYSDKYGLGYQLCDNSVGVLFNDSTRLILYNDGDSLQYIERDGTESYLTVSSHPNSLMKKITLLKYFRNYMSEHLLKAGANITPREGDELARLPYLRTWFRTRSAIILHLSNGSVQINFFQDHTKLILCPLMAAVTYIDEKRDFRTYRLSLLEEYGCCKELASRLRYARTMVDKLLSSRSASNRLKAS

These are yes or no findings as the source states them, for the method shown. In cells and extracts the contact can be indirect. Some binding calls cover weakened binding; strength is not graded here. Where a sequence is shown, tags or fusion partners need not be part of it.

In the test the target is Myc-Plk1 (UniProt P53350). In words: co-IP.

B1: Vrk3 (3xFLAG-EGFP mammalian expression construct) (protein, UniProt Q8IV63 1-474)
chain: MISFCPDCGKSIQAAFKFCPYCGNSLPVEEHVGSQTFVNPHVSSFQGSKRGLNSSFETSPKKVKWSSTVTSPRLSLFSDGDSSESEDTLSSSERSKGSGSRPPTPKSSPQKTRKSPQVTRGSPQKTSCSPQKTRQSPQTLKRSRVTTSLEALPTGTVLTDKSGRQWKLKSFQTRDNQGILYEAAPTSTLTCDSGPQKQKFSLKLDAKDGRLFNEQNFFQRAAKPLQVNKWKKLYSTPLLAIPTCMGFGVHQDKYRFLVLPSLGRSLQSALDVSPKHVLSERSVLQVACRLLDALEFLHENEYVHGNVTAENIFVDPEDQSQVTLAGYGFAFRYCPSGKHVAYVEGSRSPHEGDLEFISMDLHKGCGPSRRSDLQSLGYCMLKWLYGFLPWTNCLPNTEDIMKQKQKFVDKPGPFVGPCGHWIRPSETLQKYLKVVMALTYEEKPPYAMLRNNLEALLQDLRVSPYDPIGLPMVP
Take B1: the binding result was “binds”.
